About 620 (0.19%) of roughly 320,000 compounds were called active. This list was built around the results that the source calls inconclusive (neither active nor inactive); the mix of calls is not that of the screen. Calls come from the whole dose curve; as a rule, active = well fitted activation curve with a large enough effect; inconclusive = small, poorly fitted or top-dose-only effect; inactive = no such curve, though single readings can be large or run the other way. Potencies of inconclusive entries are doubtful fits and often do not repeat.
Assay: qHTS Assay for Identifying a Potential Treatment of Ataxia-Telangiectasia; note: nearly all actives have a fitted effect of over 45% in size; for activation: % of control where 0% means no effect
Conditions: […] A-T fibroblasts, KAP-1 phosphorylation AlphaLISA; series mostly up to 57.5 µM; activation: at the top concentration
Excerpt: NIH Chemical Genomics Center [NCGC] NIH Molecular Libraries Probe Centers Network [MLPCN] MLPCN Grant: MH089030-01 Assay Submitter (PI): Wei Zheng and Yosef Shiloh Ataxia-telangiectasia (A-T) is a devastating and progressive disease for which, there is no cure. Although A-T is a multisystem disease, it is stereotyped characterized by its neurological symptoms such as truncal ataxia, due to cerebellar cortical degeneration of the Purkinje and granule cells. Other symptoms of A-T are telangiectasias (dilated blood vessels), primary immunodeficiency, marked sensitivity to ionizing radiation (IR), chromosomal instability and predisposition to cancer. The underlying genetic cause of A-T is null mutations in the ATM (A-T mutated) gene. ATM is a nuclear serine/threonine kinase that functions as a master regulator of the cellular responses to double strand breaks (DSBs) in the DNA. Upon activation by DSBs, ATM phosphorylates a plethora of down stream targets, including KAP-1 on […]. KAP-1 phosphorylation occurs shortly in response to DSBs and mediates global chromatin relaxation, which facilitates DSB repair. To screen for small molecules that will compensate for the loss of ATM in cells derived from A-T patients, we monitored KAP-1 phosphorylation as a readout for ATM-like activity using an AlphaLISA assay.
qHTS Assay Protocol: Step,Parameter,Value,Description 1. Cell Plating, 3 ul, 500 cells/well in OPTI-MEM, 1% FBS, 1% Pen/Strep 2. Incubation, 16-24 hr, 37C, 5% CO2, 95% humidity 3. Library compounds, 23 nl, 76.7 - 0.61uM dilution series final concentration 4. Incubation, 60 min, 37C, 5% CO2, 95% humidity 5. Reagent, 1 ul, 1600 ng/ml NCS in PBS + 0.05% BSA + 0.005% Tween 20 6. Incubation, 30 min, 37C, 5% CO2, 95% humidity 7. Reagent, 1 ul, Premixed detection reagents and lysis buffer 8. Reagent, 1 ul, 0.6% Antifoam A 9. Incubation, 6 hr, 25C, 95% humidity 10. Readout, EnVision, EnVision plate reader. AlphaScreen 1536-well protocol Cells were plated using medium-binding white solid-bottom tissue culture treated Kalypsys plates. Multidrop dispense of 3 uL of […] (hTERT immortalized A-T patient fibroblast cells). Detection reagent and lysis buffer was 3.75nM Rab-a-pKAP1 antibody bound to 75 ng/ul AlphaScreen SA donor bead, 3.75 nM Biot-M-a-KAP1 antibody bound to AlphaLISA protein A acceptor bead, 0.5x protease inhibitor cocktail and 0.25x PerkinElmer lysis buffer. EnVision protocol for 1536-well AlphaScreen read (30ms excitation, 100ms read), about 10 min/plate.
Potency is the fitted concentration of half-maximal effect.

SMILES | Potency | activation
FC(F)(F)c1ccccc1CN1CCN(Cc2ccccc2)CC1 | inconclusive: 35.5 µM [activator, single point] | 
Oc1ccc(/C=N/NP(=S)(c2ccccc2)c2ccccc2)c(O)c1O |  | inactive: -3%
Nc1c(C(=O)NCCCc2ccccc2)c2nc3ccccc3nc2n1Cc1cccs1 | inconclusive: 17.8 µM [activator, partial curve] [neocarzinostatin DNA damage 30 min before lysis] | 
CC(C)c1ccc(-n2c(O)c(C=NC(CCS(C)=O)C(=O)O)c(=O)[nH]c2=S)cc1 (configuration not stated) | active: 7.94 µM | 
O=C1NC(=O)N(c2ccc(Cl)cc2)C(=O)/C1=C/c1coc2ccc(O)cc2c1=O | inconclusive: 0.631 µM [activator, full curve, poor fit] | 
CC(C)c1ccc(C2NCc3ccccc3-n3cccc32)cc1 (configuration not stated) | inconclusive: 39.8 µM [activator, single point] [neocarzinostatin DNA damage 30 min before lysis] | 
Cc1ccc(-n2c(O)c(C=NCC3CCCO3)c(=O)[nH]c2=O)c(C)c1 (configuration not stated) | inconclusive: 0.631 µM [activator, full curve, poor fit] | 
O=C1/C(=C/c2ccccc2)C[C@@]2(O)[C@H]3Cc4ccc(O)c5c4[C@@]2(CCN3CC2CC2)C1O5 (some centres not stated) | inconclusive: 35.5 µM [activator, single point] | 
COc1cc(C)c(CN2CC=C(c3ccc(F)cc3)CC2)cc1C | inconclusive: 28.2 µM [activator, single point] | 
BrCC(Br)C1CCC(Br)C(Br)C1 (configuration not stated) | inconclusive: 22.4 µM [activator, partial curve] [neocarzinostatin DNA damage 30 min before lysis] | 
O=C(c1cn(Cc2ccccc2F)c2ncccc12)C(F)(F)F | inconclusive: 0.631 µM [activator, full curve, poor fit] | 
O=C(c1ccccc1)C(CN1CCCC1)c1ccccc1 (configuration not stated) | active: 25.1 µM | 
COc1ccc2c3c([nH]c2c1)C(C)=NCC3 | inconclusive: 35.5 µM [activator, single point] | 
CSc1ncc(/C=C2/C(=O)NC(=O)N(c3ccc(C(C)C)cc3)C2=O)cn1 |  | inactive: 7.32%
CC(=O)N1C[C@H](O)C[C@H]1C(=O)O | inconclusive: 28.2 µM [activator, partial curve] [neocarzinostatin DNA damage 30 min before lysis] | 
O=C(Cc1ccccc1)N1CCN(Cc2cccc(Cl)c2)CC1 | inconclusive: 0.708 µM [activator, full curve, poor fit] | 
CCCc1nc2ccc(Br)cc2c(=O)n1-c1ccc([N+](=O)[O-])c(C(F)(F)F)c1 |  | inactive: -5.24%
O=C1OC(c2ccc(Br)cc2)=N/C1=C\N1CC2CC(C1)c1cccc(=O)n1C2 (configuration not stated) | inconclusive: 39.8 µM [activator, single point] [neocarzinostatin DNA damage 30 min before lysis] | 
FC(F)(F)c1cccc(C2NCc3ccccc3-n3cccc32)c1 (configuration not stated) | inconclusive: 39.8 µM [activator, single point] | 

SMILES | Potency | activation
Cc1ccc(OCCOc2cccc(C=C3C(=O)NC(=O)NC3=O)c2)c(C)c1 | inconclusive: 39.8 µM [activator, single point] | 
Cn1ncnc2c(=O)n(C)c(=O)nc1-2 | inconclusive: 0.891 µM [activator, full curve, poor fit] | 
Fc1ccc(C2N3CCCN23)cc1 (configuration not stated) | inconclusive: 39.8 µM [activator, partial curve, poor fit] [neocarzinostatin DNA damage 30 min before lysis] | 
Cc1ccsc1C(=O)C1CCCN(Cc2cnc(N)nc2)C1 (configuration not stated) | inconclusive: 3.98 µM [activator, partial curve] | 
CC(=NCCN1CCOCC1)c1c(O)n(Cc2ccccc2)c(=O)[nH]c1=O | inconclusive: 31.6 µM [activator, partial curve] | 
CCCCC(CC)COC(=O)CCCCC(=O)OCC(CC)CCCC (configuration not stated) | inconclusive: 25.1 µM [activator, partial curve] [neocarzinostatin DNA damage 30 min before lysis] | 
CC(O)(CS(=O)(=O)c1ccccc1)C(=O)Nc1ccc(C(F)(F)F)cc1 (configuration not stated) |  | inactive: -11.4%
N#Cc1ccc(NC(=O)CCNC(=O)c2ccco2)cc1Cl |  | inactive: 1.6%
CCOP(=O)(OCC)c1nc(-c2cccc3ccccc23)oc1NCCc1ccc(OC)cc1 | inconclusive: 28.2 µM [activator, partial curve] [neocarzinostatin DNA damage 30 min before lysis] | 
CC1(C)C(C=C(Cl)Cl)C1C(=O)OCc1cccc(Oc2ccccc2)c1 (configuration not stated) | active: 39.8 µM [neocarzinostatin DNA damage 30 min before lysis] | 
CC(=O)OC1CC[C@]2(C#N)[C@H]3CC[C@]4(C)[C@H](C5C=CC(=O)O5)CCC4(O)C3CCC2(O)C1 (some centres not stated) | inconclusive: 3.55 µM [activator, full curve] | 
Nc1c(C(=O)NCc2ccco2)c2nc3ccccc3nc2n1Cc1ccc(F)cc1 | inconclusive: 28.2 µM [activator, partial curve] [neocarzinostatin DNA damage 30 min before lysis] | 
CCC1(CC)C(=O)N(C)C(=O)NC1=NC | inconclusive: 10 µM [activator, partial curve, poor fit] | 
CC1(C)C2SCC(=O)N2CCN1CC(=O)NN (configuration not stated) | inconclusive: 3.16 µM [activator, partial curve] [neocarzinostatin DNA damage 30 min before lysis] | 
COC(=O)C1=C(c2ccc(F)cc2F)C[C@@H]2CC[C@H]1N2C(=O)NCCO | inconclusive: 3.98 µM [activator, single point] [neocarzinostatin DNA damage 30 min before lysis] | 
CC1(C)CC(N(CCc2ccccc2)Cc2ccccc2)CCO1 (configuration not stated) | active: 25.1 µM | 
Cc1cccc(CN2CCCC(C(=O)c3cccc(OC(C)C)c3)C2)n1 (configuration not stated) |  | inactive: 5.8%
COc1ccccc1N1C(=O)NC(=O)/C(=C/c2ccc3c4c(cccc24)CC3)C1=O | inconclusive: 3.16 µM [activator, partial curve] | 
CN1CCC(c2c[nH]c3ccccc23)C1 (configuration not stated) | inconclusive: 0.631 µM [activator, full curve, poor fit] | 

A different layout for some results above:

| SMILES | Potency | activation |
| --- | --- | --- |
| CC(=NCCN1CCOCC1)c1c(O)n(Cc2ccccc2)c(=O)[nH]c1=O | inconclusive: 31.6 µM [activator, partial curve] |  |
| CCCCC(CC)COC(=O)CCCCC(=O)OCC(CC)CCCC (configuration not stated) | inconclusive: 25.1 µM [activator, partial curve] [neocarzinostatin DNA damage 30 min before lysis] |  |
| CC(O)(CS(=O)(=O)c1ccccc1)C(=O)Nc1ccc(C(F)(F)F)cc1 (configuration not stated) |  | inactive: -11.4% |

Next records:

SMILES | Potency | activation
COCCCNC(=O)c1c(N)n(Cc2ccco2)c2nc3ccccc3nc12 | inconclusive: 35.5 µM [activator, single point] | 
COCCNC(=O)c1c(N)n(Cc2ccco2)c2nc3ccccc3nc12 | inconclusive: 15.8 µM [activator, partial curve] [neocarzinostatin DNA damage 30 min before lysis] | 
O=C(Oc1ccc2cc(Br)ccc2c1)N1CCCCCC1 | active: 35.5 µM [neocarzinostatin DNA damage 30 min before lysis] | 
CCc1ccc(CN2CCN(Cc3ccc(SC)cc3)CC2)cc1 | inconclusive: 39.8 µM [activator, single point] | 
COC(=O)c1ccccc1N=Cc1c(O)[nH]c(=O)[nH]c1=O | inconclusive: 1.12 µM [activator, partial curve] | 
O=c1c2cc([N+](=O)[O-])ccc2nc(CN2CCOCC2)n1-c1ccccc1F |  | inactive: 6.1%
Fc1ccc2c(c1)nnn2C1CCN(Cc2nnnn2C2CCCCC2)CC1 | inconclusive: 3.16 µM [activator, partial curve] [neocarzinostatin DNA damage 30 min before lysis] | 
Oc1ccc2c3c1O[C@H]1c4oc5ccccc5c4C[C@@]4(O)[C@@H](C2)N(CC2CC2)CC[C@]314 | inconclusive: 1 µM [activator, partial curve] | 
C=CC(C)C(C(=O)c1ccccc1)N(C)C (configuration not stated) |  | inactive: -2.7%
COc1ccc(N2C(=O)/C(=C/c3ccc(N(C)C)o3)C(=O)NC2=S)cc1 |  | inactive: 0%
Cc1cc(=O)oc2cc3c(cc12)CCCN3 | active: 20 µM | 
Cc1cccc(-n2c(O)c(C=NCCN3CCNCC3)c(=O)[nH]c2=S)c1 | inconclusive: 1.26 µM [activator, full curve, poor fit] | 
CCCNC(=O)c1c(N)n(CC2CCCO2)c2nc3ccccc3nc12 (configuration not stated) | inconclusive: 708 nM [activator, full curve, poor fit] [neocarzinostatin DNA damage 30 min before lysis] | 
CCOc1ccc(-c2c(C)n(-c3ccc(OCC)cc3)c3[n+]2CCCCC3)cc1 | active: 17.8 µM | 
CCSc1cc(C2C(C#N)=C(N)Oc3n[nH]c(C)c32)c(C)o1 (configuration not stated) | inconclusive: 22.4 µM [activator, single point] | 
Cc1ccc2c(c1)C(=O)CC1(CCC(C(C)(C)C)CC1)O2 (configuration not stated) | inconclusive: 39.8 µM [activator, single point] [neocarzinostatin DNA damage 30 min before lysis] | 
CCC(=O)N1N=C(c2c(O)n(C)c(=O)n(C)c2=O)CC1c1ccccc1 (configuration not stated) | inconclusive: 35.5 µM [activator, partial curve] | 
CN1C(=O)/C(=C/c2cccn2-c2ccc3ccccc3c2)C(=O)NC1=S | inconclusive: 8.91 µM [activator, partial curve] | 
COc1ccc(OC)c(-n2c(O)c(/C=C3\C=Nc4ccccc43)c(=O)[nH]c2=O)c1 | inconclusive: 2.24 µM [activator, full curve, poor fit] | 
